No constants are given. Whether binding was seen depends on the method and setting. Some binding calls cover weakened binding; strength is not graded here. Tags and fused reporters may be left off the sequences shown.
Molecular target: fibrin (insoluble, formed in the wells from coated fibrinogen by thrombin) (human) (UniProt P02671+P02675+P02679)
Experiment: ELISA; fibrin formed in Maxisorp wells from coated fibrinogen (10 µg/mL) by thrombin, fibrinogen coated as control; blocked with 1% BSA in PBST; in vivo biotinylated purified binders applied, detected by streptavidin-HRP; both purified

Sequences of proteins named here, by UniProt entry; tags and fusion partners are left off. A change or cut given only in a name is not applied to a line headed by its entry.
UniProt P02671: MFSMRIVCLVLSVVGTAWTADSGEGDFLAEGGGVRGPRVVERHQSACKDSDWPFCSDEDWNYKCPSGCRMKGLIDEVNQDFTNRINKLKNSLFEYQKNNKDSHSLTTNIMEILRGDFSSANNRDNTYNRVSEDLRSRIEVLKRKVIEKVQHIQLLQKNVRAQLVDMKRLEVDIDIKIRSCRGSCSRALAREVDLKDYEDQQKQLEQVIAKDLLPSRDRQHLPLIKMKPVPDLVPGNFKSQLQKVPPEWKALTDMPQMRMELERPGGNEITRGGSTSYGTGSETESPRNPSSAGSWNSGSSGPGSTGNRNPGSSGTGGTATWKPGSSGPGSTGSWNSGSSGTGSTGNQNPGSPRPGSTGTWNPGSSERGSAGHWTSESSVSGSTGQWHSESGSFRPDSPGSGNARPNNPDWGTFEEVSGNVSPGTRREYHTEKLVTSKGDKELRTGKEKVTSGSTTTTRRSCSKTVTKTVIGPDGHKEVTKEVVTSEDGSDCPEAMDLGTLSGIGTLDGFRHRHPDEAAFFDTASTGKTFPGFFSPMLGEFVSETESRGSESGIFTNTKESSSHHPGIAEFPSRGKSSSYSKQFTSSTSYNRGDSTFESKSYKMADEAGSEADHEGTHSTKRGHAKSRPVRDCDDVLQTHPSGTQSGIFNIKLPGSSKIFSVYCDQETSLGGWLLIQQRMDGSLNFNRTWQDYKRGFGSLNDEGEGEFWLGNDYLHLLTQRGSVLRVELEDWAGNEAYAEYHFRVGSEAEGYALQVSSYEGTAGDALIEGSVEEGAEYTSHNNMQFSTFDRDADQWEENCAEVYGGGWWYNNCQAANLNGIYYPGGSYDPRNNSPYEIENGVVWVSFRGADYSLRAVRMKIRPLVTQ
UniProt P02675: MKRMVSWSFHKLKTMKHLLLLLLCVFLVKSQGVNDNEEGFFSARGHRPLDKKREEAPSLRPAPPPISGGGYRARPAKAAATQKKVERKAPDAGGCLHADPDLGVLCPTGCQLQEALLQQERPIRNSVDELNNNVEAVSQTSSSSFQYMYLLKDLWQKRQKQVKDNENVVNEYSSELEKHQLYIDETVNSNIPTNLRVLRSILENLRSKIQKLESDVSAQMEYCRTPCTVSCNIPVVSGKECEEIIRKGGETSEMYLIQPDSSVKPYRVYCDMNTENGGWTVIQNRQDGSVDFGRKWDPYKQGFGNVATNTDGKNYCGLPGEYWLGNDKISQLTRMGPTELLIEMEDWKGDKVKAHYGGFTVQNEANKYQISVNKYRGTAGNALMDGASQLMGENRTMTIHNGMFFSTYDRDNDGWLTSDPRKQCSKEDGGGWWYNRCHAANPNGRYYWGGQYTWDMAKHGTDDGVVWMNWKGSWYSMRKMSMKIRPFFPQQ
UniProt P02679: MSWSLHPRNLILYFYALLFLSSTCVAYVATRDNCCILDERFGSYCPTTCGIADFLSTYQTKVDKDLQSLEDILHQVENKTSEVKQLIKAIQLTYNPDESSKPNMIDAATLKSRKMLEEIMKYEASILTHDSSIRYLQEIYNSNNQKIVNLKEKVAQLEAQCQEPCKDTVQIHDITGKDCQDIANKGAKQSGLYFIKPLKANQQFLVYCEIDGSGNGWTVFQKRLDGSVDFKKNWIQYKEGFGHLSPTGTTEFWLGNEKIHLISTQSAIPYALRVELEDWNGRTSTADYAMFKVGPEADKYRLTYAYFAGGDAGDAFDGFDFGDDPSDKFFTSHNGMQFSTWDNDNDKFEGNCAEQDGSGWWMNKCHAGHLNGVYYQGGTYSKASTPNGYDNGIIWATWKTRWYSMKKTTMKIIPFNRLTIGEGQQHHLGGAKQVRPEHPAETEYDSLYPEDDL

Binder | binding
LAEAKVLANRELDKYGVSDFYKNLINVAMPVVLVKTAIDGILAALP (designed binder, biotin on the C-terminal Avitag (in vivo biotinylated)) [E7-TolA-Avi] | binds
LAEAKVLANRELDKYGVSDGYKNWINPADGVAGVKSAIDAILAALP (designed binder, biotin (in vivo biotinylated)) [F11 (TolA-Avi fusion)] | binds
